Experimental data: PubChem BioAssay AID1224830 (NIAID, 2016)

Test: 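Host factors that control LPS-induced TNF expression in human macrophages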 (primary screen)
Cells: human THP-1 monocytic leukaemia cells, TNF dual-luciferase reporter clone, PMA-differentiated to macrophage-like cells
Reagents: siRNA pool against human genes, 50 nM
Duration: LPS for 4 h, given about 3 days after siRNA transfection
Conditions: bacterial LPS (TLR4 ligand), 10 ng/ml
Measurement: 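TNF firefly reporter luminescence divided by renilla, normalised to the plate median, then turned into a robust z-score for each replicate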
Direction: TNF reporter robust z-score: higher = stronger TNF reporter response to LPS
Call rule: 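Each well counts as active if its z-score is over 2.8 or under -1.5; controls are left without a call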
The whole screen tested about 18,000 reagents; this is a part drawn at random. About 2,900 of all reagents (16%) were called active. 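Calls are made per well; low scores hint the gene aids the LPS response, high scores that it dampens it.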 Repeated entries: four replicate wells of each siRNA pool.

For ATP11AUN (GeneID 400165) [SID315464735], the entry reads TNF reporter robust z-score 0.82; inactive.
Against ATP11AUN (GeneID 400165) [SID315464735], the values are TNF reporter robust z-score 0.22; inactive.
ATP11AUN (GeneID 400165) [SID315464735] scored TNF reporter robust z-score 0.6; inactive.
Against ATP11AUN (GeneID 400165) [SID315464735], the entry reads TNF reporter robust z-score 0.19; inactive.
With knock-down of SLC9B2 (GeneID 133308) [SID315461941], the screen gave TNF reporter robust z-score -0.78; inactive.
For SLC9B2 (GeneID 133308) [SID315461941] the deposit lists TNF reporter robust z-score -0.16; inactive.
For SLC9B2 (GeneID 133308) [SID315461941] the deposit lists TNF reporter robust z-score -0.58; inactive.
Depletion of SLC9B2 (GeneID 133308) [SID315461941] came out at: TNF reporter robust z-score -0.46; inactive.
CDR2 (GeneID 1039) [SID315447861] showed TNF reporter robust z-score -0.45; inactive.
Knock-down of CDR2 (GeneID 1039) [SID315447861] resulted in: TNF reporter robust z-score 0.63; inactive.
Knock-down of CDR2 (GeneID 1039) [SID315447861] resulted in: TNF reporter robust z-score 0.03; inactive.
Against CDR2 (GeneID 1039) [SID315447861], the values are TNF reporter robust z-score 0.83; inactive.
After knock-down of CDK11B (GeneID 984) [SID315447815], the screen gave TNF reporter robust z-score 0.99; inactive.
After knock-down of CDK11B (GeneID 984) [SID315447815], the screen gave TNF reporter robust z-score 1.45; inactive.
With knock-down of CDK11B (GeneID 984) [SID315447815] the results were TNF reporter robust z-score 0.8; inactive.
With knock-down of CDK11B (GeneID 984) [SID315447815] the results were TNF reporter robust z-score 1.79; inactive.
CCDC88B (GeneID 283234) [SID315463649] scored TNF reporter robust z-score 2.19; inactive.
With knock-down of CCDC88B (GeneID 283234) [SID315463649] the results were TNF reporter robust z-score 2.3; inactive.
CCDC88B (GeneID 283234) [SID315463649] showed TNF reporter robust z-score 2.12; inactive.
Silencing of CCDC88B (GeneID 283234) [SID315463649] resulted in: TNF reporter robust z-score 1.76; inactive.

Records listed so far whose gene name begins with A or a (4):
ATP11AUN (GeneID 400165) [SID315464735] → TNF reporter robust z-score: 0.82; Call: inactive
ATP11AUN (GeneID 400165) [SID315464735] → TNF reporter robust z-score: 0.22; Call: inactive
ATP11AUN (GeneID 400165) [SID315464735] → TNF reporter robust z-score: 0.6; Call: inactive
ATP11AUN (GeneID 400165) [SID315464735] → TNF reporter robust z-score: 0.19; Call: inactive
